The target of this test is T1, GFP-ANLN-201 (human) (UniProt Q9NQW6).
T1 sequence: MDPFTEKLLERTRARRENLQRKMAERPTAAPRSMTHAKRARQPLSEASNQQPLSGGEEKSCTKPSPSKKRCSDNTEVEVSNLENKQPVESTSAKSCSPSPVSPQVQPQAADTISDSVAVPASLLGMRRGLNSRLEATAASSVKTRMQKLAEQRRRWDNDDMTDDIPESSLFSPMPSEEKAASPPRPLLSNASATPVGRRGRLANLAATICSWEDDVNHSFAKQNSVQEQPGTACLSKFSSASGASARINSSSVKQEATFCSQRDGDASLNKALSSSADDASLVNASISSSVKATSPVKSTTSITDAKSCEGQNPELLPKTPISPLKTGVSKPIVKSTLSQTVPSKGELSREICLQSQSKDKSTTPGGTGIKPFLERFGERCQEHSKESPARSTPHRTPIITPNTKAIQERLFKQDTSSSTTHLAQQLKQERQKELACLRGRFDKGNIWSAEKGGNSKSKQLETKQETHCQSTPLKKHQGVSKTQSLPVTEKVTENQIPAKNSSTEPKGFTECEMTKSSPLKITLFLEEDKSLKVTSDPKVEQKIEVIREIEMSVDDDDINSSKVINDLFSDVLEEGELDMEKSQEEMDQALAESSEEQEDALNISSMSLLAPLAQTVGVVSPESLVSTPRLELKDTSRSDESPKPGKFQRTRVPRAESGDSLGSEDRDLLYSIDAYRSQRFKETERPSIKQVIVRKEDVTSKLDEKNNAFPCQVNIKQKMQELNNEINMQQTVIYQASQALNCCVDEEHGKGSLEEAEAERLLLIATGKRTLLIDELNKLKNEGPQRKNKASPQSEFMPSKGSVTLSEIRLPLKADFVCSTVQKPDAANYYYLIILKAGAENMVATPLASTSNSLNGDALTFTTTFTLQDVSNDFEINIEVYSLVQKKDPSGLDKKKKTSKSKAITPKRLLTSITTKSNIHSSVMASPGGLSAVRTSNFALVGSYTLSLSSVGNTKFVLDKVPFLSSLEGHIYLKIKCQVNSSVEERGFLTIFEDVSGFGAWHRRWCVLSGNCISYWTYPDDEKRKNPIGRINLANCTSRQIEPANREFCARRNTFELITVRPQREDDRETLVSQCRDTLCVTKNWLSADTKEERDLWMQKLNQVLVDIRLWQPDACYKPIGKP
The experiment in a line: co-IP; lysates of SCC-9 cells transfected with GFP-ANLN-201 or GFP-ANLN-210, pre-cleared and incubated with GFP-protein-magnetic beads overnight at 4 °C; beads washed, boiled and immunoblotted; endogenous F-actin or Myc as prey.

Amino acid sequences for entries named in this document (tags omitted).
UniProt P01106: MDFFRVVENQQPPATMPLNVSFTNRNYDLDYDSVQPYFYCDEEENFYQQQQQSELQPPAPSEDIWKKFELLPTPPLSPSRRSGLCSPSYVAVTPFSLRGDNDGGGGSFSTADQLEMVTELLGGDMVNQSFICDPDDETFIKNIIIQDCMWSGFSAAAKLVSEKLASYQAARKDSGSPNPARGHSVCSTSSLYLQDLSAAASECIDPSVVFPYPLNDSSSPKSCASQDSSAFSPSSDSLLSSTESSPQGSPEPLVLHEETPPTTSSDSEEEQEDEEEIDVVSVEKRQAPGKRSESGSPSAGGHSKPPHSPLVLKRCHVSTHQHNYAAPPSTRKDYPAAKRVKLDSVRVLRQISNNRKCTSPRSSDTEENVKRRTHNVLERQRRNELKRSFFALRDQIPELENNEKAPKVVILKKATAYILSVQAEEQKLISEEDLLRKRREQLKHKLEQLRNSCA

Results are given in words; binding and its absence hold for the method and conditions named. Binding seen in cells or lysates may run through a third protein. Some binding calls cover weakened binding; strength is not graded here. Sequences can lack the tags named with a protein.

For the substance c-Myc (from UniProt P01106 1-454), the binding result is recorded as “binds”.

The record behind these values is publication PMC8333361.
